Source: patent US20250320462A1, “METHODS AND APPARATUSES FOR TESTING HEPATOCYTE TOXICITY USING MICROORGANOSPHERES” (XILIS, INC., priority 2022, published 2025)
At least one compound was matched to its structure with a doubt left.

System: tumor MOSs
Test: Drug screen on MOSs generated from a patient tumor biopsy
Type: cell-based
Details: single tumor biopsy
Experimental: In a similar set of experiments, MOSs were generated from biopsy material (FIG. 23A), and a drug effect screen was performed using the resulting MOSs. […] Thus, the MOSs correlated strongly with patient response to the standard of care drugs. In this case, the patient endured six months of side effects and toxicities that may have been avoided by the predicted response from the MOSs, indicating (within 7-10 days from the biopsy) that the tumor would not respond to these drugs.
In this example, a drug screen using the Patient-Derived MOSs was run by dosing a plurality of replicates for each of a plurality of (27) drugs. A single tumor biopsy was used to generate a plurality of MOSs in large quantities extremely fast (e.g., within less than two weeks) and these MOSs were tested against the panel of drug formulations (e.g., 27 formulations are shown). This testing was done in parallel and could be automatically quantified (e.g., by optical detection and quantification).

Cc1ccc(Nc2nccc(N(C)c3ccc4c(C)n(C)nc4c3)n2)cc1S(N)(=O)=O [Pazopanib]
toxicity rank in panel of 27 drugs: largest toxicity
